Values from PubChem BioAssay AID1508588 (Peter MacCallum Cancer Centre, 2020).
Purpose: 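Which gene losses make BRAF-mutant melanoma cells more responsive to vemurafenib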 (primary screen). Cells: human WM266.4 melanoma cells (BRAF V600 mutant). Reagent: siRNA pool against human genes, 40 nM. Duration: 96 h from transfection to read-out. Conditions: vemurafenib 300 nM (about IC25), added 48 h after transfection, for 48 h; comparison arm got DMSO vehicle only. Detection: 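Cell gain (DAPI nuclei at end minus before drug, mean of two replicates) and medium lactate by absorbance per cell, both as ratio to non-targeting siRNA, also grouped into fold-change classes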. Reading the numbers: cell gain with vemurafenib: higher = more cell gain than with non-targeting siRNA; lactate per cell with vemurafenib: higher = more lactate made per cell. Hit rule: 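Enhancement is called by pairing each knock-down's vehicle-arm and drug-arm fold-change classes for viability or glycolysis; which class combinations qualify is not given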. Meaning of the calls: active = enhances vemurafenib effect; inactive = no enhancement seen.
The deposit covers about 18,000 reagents; below is a random part of them. 790 of them (4.4%) were called active. 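Calls rest on a combination of fold-change classes in drug and vehicle arms, not all shown here.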

CD48: cell gain with vemurafenib = 0.88; lactate per cell with vemurafenib = 0.47; Call = active
C1orf146: cell gain with vemurafenib = 0.44; lactate per cell with vemurafenib = 2.09; Call = inactive
MT1M: cell gain with vemurafenib = 0.15; lactate per cell with vemurafenib = 1.35; Call = inactive
DNAJC1: cell gain with vemurafenib = 0.45; lactate per cell with vemurafenib = 0.92; Call = inactive
NPVF: cell gain with vemurafenib = 0.51; lactate per cell with vemurafenib = 0.41; Call = inactive
CCDC43: cell gain with vemurafenib = 1.23; lactate per cell with vemurafenib = 0.62; Call = inactive
UXT: cell gain with vemurafenib = 0.99; lactate per cell with vemurafenib = 0.88; Call = inactive
GIT2: cell gain with vemurafenib = 1.06; lactate per cell with vemurafenib = 0.74; Call = inactive
FAM27E5: cell gain with vemurafenib = 0.5; lactate per cell with vemurafenib = 1.05; Call = inactive
NALF1: cell gain with vemurafenib = 1.47; lactate per cell with vemurafenib = 0.62; Call = inactive
MACROD2: cell gain with vemurafenib = 0.67; lactate per cell with vemurafenib = 0.82; Call = inactive
PCDHB7: cell gain with vemurafenib = 0.42; lactate per cell with vemurafenib = 1.12; Call = inactive
SLC9D1: cell gain with vemurafenib = 0.81; lactate per cell with vemurafenib = 1.02; Call = inactive
IMPG2: cell gain with vemurafenib = 0.54; lactate per cell with vemurafenib = 0.84; Call = inactive
CEP85: cell gain with vemurafenib = 0.86; lactate per cell with vemurafenib = 0.72; Call = inactive
CUTA: cell gain with vemurafenib = 0.43; lactate per cell with vemurafenib = 1.27; Call = inactive
